# Measured values taken from publication PMC12537489.
# Chains of the proteins cited; added tags and fusions are not shown.
# UniProt P61244: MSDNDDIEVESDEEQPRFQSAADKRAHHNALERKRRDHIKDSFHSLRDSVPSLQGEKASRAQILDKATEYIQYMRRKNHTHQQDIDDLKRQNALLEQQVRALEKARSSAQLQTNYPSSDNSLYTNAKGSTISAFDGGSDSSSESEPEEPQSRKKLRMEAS
# Results are given in words; binding and its absence hold for the method and conditions named. In cells and extracts the contact can be indirect. Some results given as binding are weak or reduced against the parent protein; the word gives no strength.
# B1: MAX Dimerization Protein 4 (MXD4) (protein, UniProt Q14582 1-209)
# chain: MELNSLLILLEAAEYLERRDREAEHGYASVLPFDGDFAREKTKAAGLVRKAPNNRSSHNELEKHRRAKLRLYLEQLKQLVPLGPDSTRHTTLSLLKRAKVHIKKLEEQDRRALSIKEQLQQEHRFLKRRLEQLSVQSVERVRTDSTGSAVSTDDSEQEVDIEGMEFGPGELDSVGSSSDADDHYSLQSGTGGDSGFGPHCRRLGRPALS
# Target: MAX (human (endogenous in K562)) (UniProt P61244)
# Assay: co-IP; lysates of SCR- and shMETTL16-transduced K562 cells at 5 days post-infection, non-denaturing conditions; immunoprecipitated with anti-MAX (anti-IgG as control), Protein-G Dynabeads, eluates analysed by Western blot
binder,measurement,value
B1,binding,binds
